Literature values, collected in paper PMC12406664, “New derivatives of 6-nitrocoumarin-3-thiosemicarbazone exhibit improved antiparasitic activity in the placenta against Trypanosoma cruzi and Toxoplasma gondii” (Antimicrobial Agents and Chemotherapy, 2025).

Test system: T. cruzi
Set-up: method as in ref 28 (b), 32, 33 (c, d)
Details: Fig. 2 literature compounds, ref 28 (b), 32, 33 (c, d); cited from earlier work

Q: With `NC(=S)N/N=C/c1ccc([N+](=O)[O-])o1` [b] as the compound, how does the “SI = EC50 (mammalian cell model) / IC50 (parasite)” value read?
A: 3.2
